About 3,700 (1.2%) of roughly 300,000 compounds were called active. This list was built around the results that the source calls inconclusive (neither active nor inactive); the mix of calls is not that of the screen. The call rests on the fitted dose curve; tested in HEK293 cells. Where the call is inconclusive, the potency comes from a doubtful curve fit.
Assay: qHTS for Inhibitors of binding or entry into cells for Lassa Virus; further: nearly all actives have a fitted effect of over 50% in size
Conditions: Lassa virus pseudotype entry inhibition, cell reporter; series mostly up to 37.9 µM
Potency means the concentration at half of the fitted maximal effect.

SMILES | Potency
CCSCc1nnc(SCC(=O)Nc2cccc(C(C)=O)c2)n1C | inactive
COc1ccc2nc(NC(=O)C3CCN(S(=O)(=O)c4cccs4)CC3)sc2c1 | active: 14.6 µM
Cc1[nH]c2ccc(S(N)(=O)=O)cc2c1C | inactive
COCCCNC(=S)N(Cc1cccnc1)Cc1ccc(OC)c(OC)c1 | inactive
O=C(Nc1cccnc1)c1cc(-c2ccc3c(c2)OCO3)on1 | inconclusive: 2.06 µM [activator, partial curve, poor fit]
N#CCc1c(C#N)c(N)nc(N2CCN(c3ccc(F)cc3)CC2)c1C#N | inconclusive: 0.0052 µM [activator, full curve, poor fit]
Cc1ccc(N2CCN(C(=O)c3c4c(nc5ccccc35)C(=O)N(C3CCCCC3)C4)CC2)c(C)c1 | inconclusive: 35.5 µM [activator, single point]
Cc1snc(SCc2ccc(F)cc2)c1C#N | inactive
CCOC(=O)N1CCN(S(=O)(=O)c2ccc(OCC)c3ccccc23)CC1 | inconclusive: 20 µM [inhibitor, single point]
COc1ccc(C(=O)NCc2c(C)oc(C)c2C(=O)O)cc1 | inconclusive: 3.55 µM [inhibitor, partial curve, poor fit]
Cc1ccc(NC2=C(C(=O)c3ccccc3)N(C)S(=O)(=O)c3ccccc32)cc1 | inactive
Cc1ccc(C)c(N2CCN(C(=O)Cn3c(-c4cccs4)cc4ccccc43)CC2)c1 | inconclusive: 11.2 µM [inhibitor, partial curve, poor fit]
Cc1ccc(C(=O)NCCC2=CCCCC2)cc1S(=O)(=O)N1CCCCC1 | active: 7.94 µM
COc1ccc(-c2cc(=O)n(-c3nc4ccccc4[nH]3)[nH]2)cc1 | inconclusive: 29.1 µM [inhibitor, partial curve, poor fit]
CCCNC(=O)c1cc(S(=O)(=O)N2CCCCC2)ccc1N1CCOCC1 | inactive
Cc1ccc(C)c(Nc2nn3c(=O)c4ccc(C(=O)NCCc5ccccc5)cc4nc3s2)c1 | inactive
Nc1c(Cl)ncnc1N/N=C/c1cccnc1 | inactive
CCOC(=O)Nc1nnc(-c2ccccc2OC)s1 | inactive
CCn1cc(C(=O)N[C@@H](CCSC)C(=O)NCCOC)c(=O)c2cc3c(cc21)OCO3 | inactive
Nc1nc(-c2cccnc2)nn1C(=O)CCc1ccccc1 | inconclusive: 0.259 µM [inhibitor, partial curve, poor fit]
CCN(CC)C(=S)SCC(=O)Nc1ccc(F)cc1 | inconclusive: 35.5 µM [inhibitor, single point]
CN(C)c1ccc(CNC(=O)C2CCN(S(=O)(=O)c3ccc4c(ccn4C)c3)CC2)cc1 | inactive
COc1ccccc1C(=O)COC(=O)Cn1c(C)csc1=O | inconclusive: 10 µM [activator, partial curve, poor fit]
O=C(NNC(=O)C1CCCCC1)c1ccncc1 | inconclusive: 0.562 µM [inhibitor, full curve, poor fit]
O=C(Nc1ccccc1Cl)OC1CCCCC1 | inactive

Shown in markdown: entries from further up

| SMILES | Potency |
| --- | --- |
| CCSCc1nnc(SCC(=O)Nc2cccc(C(C)=O)c2)n1C | inactive |
| Cc1[nH]c2ccc(S(N)(=O)=O)cc2c1C | inactive |
| O=C(Nc1cccnc1)c1cc(-c2ccc3c(c2)OCO3)on1 | inconclusive: 2.06 µM [activator, partial curve, poor fit] |
| Cc1ccc(C)c(N2CCN(C(=O)Cn3c(-c4cccs4)cc4ccccc43)CC2)c1 | inconclusive: 11.2 µM [inhibitor, partial curve, poor fit] |
| Cc1ccc(C(=O)NCCC2=CCCCC2)cc1S(=O)(=O)N1CCCCC1 | active: 7.94 µM |

Further structures.

SMILES | Potency
Cc1cc(C)c(C#N)c(SCC(=O)c2ccc(Cl)cc2Cl)n1 | inconclusive: 6.51 µM [inhibitor, partial curve]
Cc1cnn(-c2ccc3nnc(-c4ccc(Br)cc4)n3n2)c1 | inconclusive: 0.164 µM [activator, single point]
Cc1ccccc1CSc1nnc(C)c(=O)n1N | inconclusive: 1.26 µM [inhibitor, single point]
Nc1ccc(S(=O)(=O)Nc2nccc(/C=C/c3ccccc3F)n2)cc1 | inconclusive: 2.82 µM [inhibitor, partial curve, poor fit]
Cc1ccc(NC(=S)N2CCN(S(C)(=O)=O)CC2)cc1 | inactive
COc1ccc(CCNc2ncnc3c2c(-c2ccccc2)cn3-c2ccc(F)cc2)cc1OC | inconclusive: 10 µM [inhibitor, partial curve, poor fit]
COc1ccc(CNC(=O)CSc2ncn[nH]2)cc1OC | inconclusive: 35.5 µM [inhibitor, single point]
Cc1nn(C)c(Cl)c1CN1CCCC(C(=O)Nc2ccc(-c3cscn3)cc2)C1 (stereo not drawn) | inconclusive: 35.5 µM [inhibitor, single point]
CCOc1cc(/C=C/c2nc3cc(C)c(C)cc3s2)ccc1OCC(=O)N1CCOCC1 | inactive
CCc1ccccc1N(C)C(=O)c1cnc(N2CCOCC2)c2ccccc12 | inconclusive: 2.82 µM [inhibitor, full curve]
Cc1ccc(S(=O)(=O)n2nccc2-c2c(-c3ccc(Cl)cc3)noc2C)cc1 | inconclusive: 35.5 µM [inhibitor, single point]
Cc1ccc(-c2cc(C(=O)NCc3cnn(C)c3)c3cc(Br)ccc3n2)cc1 | inconclusive: 35.5 µM [inhibitor, single point]
Cc1ccc(S(=O)(=O)N/N=C/c2cc(Br)c(C)o2)cc1 | inactive
O=C1C=C(NC2CCCC2)CC(c2ccccc2)C1 (stereo not drawn) | inconclusive: 10 µM [inhibitor, partial curve]
CC1=CC2(C)C(C3C(C)=CC2(C)C(=O)C3(C)O)C(C)(O)C1=O (stereo not drawn) | inactive
CNC(=O)c1sc(Nc2ccc(OCc3ccccc3)cc2)nc1C | inconclusive: 11.2 µM [inhibitor, partial curve, poor fit]
CCCCNc1nc(Oc2ccc(OCC(N)=O)nn2)nc(N2CCOCC2)n1 | inactive
Cc1nc2[nH]c(=O)c3c(n2n1)NC1=C(C(=O)CC(C)(C)C1)C3c1ccc(F)cc1 (stereo not drawn) | inconclusive: 20.6 µM [inhibitor, single point]
Cc1ccc(NC(=O)CSc2ccccc2NC(=O)c2cccc(Cl)c2)cc1Cl | inconclusive: 0.708 µM [activator, single point]
CC(C)CCC1(CCNC(=O)c2cccs2)CCOC(C)(C)C1 (stereo not drawn) | inconclusive: 39.8 µM [inhibitor, partial curve, poor fit]
O=C(CCCN1C(=O)/C(=C\c2ccccc2)SC1=S)Nc1cccc(C(=O)O)c1 | inactive
COc1ccc(CNc2ccc3cc(S(=O)(=O)N4CCCCC4)ccc3n2)cc1 | inconclusive: 35.5 µM [inhibitor, single point]
COc1cc(OC)cc(C(=O)N2CCC(c3ccncc3)CC2)c1 | inactive
COc1ccc(N2CC(c3nc(-c4cc(OC)c(OC)c(OC)c4)no3)CC2=O)cc1Cl (stereo not drawn) | inconclusive: 35.5 µM [inhibitor, single point]
CCNc1nc2c(c(=O)[nH]c(=O)n2C)n1CC(O)COc1ccc(Cl)cc1Cl (stereo not drawn) | inconclusive: 0.316 µM [inhibitor, full curve, poor fit]

SMILES | Potency
CCC(=O)N1CCCc2cc(S(=O)(=O)N3CCC(C(=O)Nc4ccc(F)c(F)c4)CC3)ccc21 | inactive
CC(C)C(NS(=O)(=O)c1ccccc1)C(=O)OCc1cc([N+](=O)[O-])cc2c1OCOC2 (stereo not drawn) | inactive
CC(=O)c1cccc(NC(=O)CCCN2C(=O)COc3ccc(C)cc32)c1 | inactive
CCOc1ccc(C(=O)Nc2nnc(S(=O)(=O)N(CC)c3ccccc3C)s2)cc1 | inactive
O=C(NCCc1ccccc1)c1ccc2c(c1)CCN2S(=O)(=O)c1ccc(Br)cc1 | inactive
Cc1ccc(C(=O)OCC(=O)NCC2CCCO2)c(C)c1 (stereo not drawn) | inconclusive: 35.5 µM [activator, single point]
O=C(Nc1ccc(Cl)cc1C(F)(F)F)c1ccccc1 | inconclusive: 6.31 µM [activator, single point]
COc1ccc(-c2cc3nc(-c4ccccc4)cc(N4CCC5(CC4)OCCO5)n3n2)cc1 | inactive
COC(=O)c1sc2cccc(F)c2c1S(=O)(=O)N1CCN(c2ccccc2OC)CC1 | inconclusive: 7.94 µM [inhibitor, partial curve, poor fit]
O=C(Nc1ccc(SC(F)F)cc1)c1cc(-c2cccs2)on1 | inactive
O=C(OCc1ccccc1C(F)(F)F)c1cc([N+](=O)[O-])ccc1N1CCOCC1 | inconclusive: 10 µM [inhibitor, partial curve, poor fit]
O=C(OCc1nnc(-c2ccccc2)o1)c1cc(=O)c2ccccc2o1 | inconclusive: 15.8 µM [activator, single point]
COc1ccccc1CNC(=O)CN1C(=O)CSc2c1c(C)nn2-c1ccccc1 | inactive
O=S1(=O)C=C(SCc2cccc(Cl)c2)Nc2ccccc21 | inconclusive: 35.5 µM [inhibitor, single point]
COc1cc(CN(C)CC2CCCN(CCc3ccccc3F)C2)cc(Cl)c1OC (stereo not drawn) | inconclusive: 11.2 µM [inhibitor, partial curve, poor fit]
O=C(NCCSCc1c(F)cccc1Cl)C1CCN(S(=O)(=O)Cc2ccccc2)CC1 | inactive
O=C(CN(c1ccc(F)cc1)S(=O)(=O)c1ccc2c(c1)OCCO2)Nc1ccccc1 | inactive
O=C(COc1ccc(Cl)cc1)Nc1ccccc1C(=O)OCc1cc(=O)n2ccsc2n1 | inconclusive: 35.5 µM [activator, single point]
COc1cc(/C=N/NC(=O)C2CCN(CC(O)COCc3ccccc3)CC2)cc(OC)c1OC (stereo not drawn) | inconclusive: 5.62 µM [inhibitor, single point]
CC(C(=O)NCc1ccc(F)cc1)n1ccc2cc(S(=O)(=O)N3CCCC3)ccc21 (stereo not drawn) | inconclusive: 35.5 µM [inhibitor, single point]
CCCC(=O)NCC(c1ccc2c(c1)OCO2)N1CCOCC1 (stereo not drawn) | inactive
CCOc1ccc(OC(=O)c2cccnc2)cc1 | inactive
COC(=O)C1(C)Nc2ccccc2C(=O)N1c1ccccc1OC (stereo not drawn) | inactive

Source: PubChem BioAssay AID540256 (National Center for Advancing Translational Sciences (NCATS), 2011)
